Where a chain is given by its changes, count along the chain named. No constants are given. Whether binding was seen depends on the method and setting. In cells and extracts the contact can be indirect. Some binding calls cover weakened binding; strength is not graded here. Sequences can lack the tags named with a protein.
Columns and labels:
Experiment in all cases: co-IP; Sec24 immunoprecipitated from 2 mg yeast lysate (20 mM Hepes pH 7.4, 150 mM NaCl, 1% Triton X-100, protease and phosphatase inhibitors; with or without DSP cross-linker) with rabbit polyclonal anti-Sec24 serum and protein A-sepharose, 4°C; blotted with anti-myc for Atg9-13myc; cells in SMD or starved in SD-N (4 hr at 30°C; hrr25-5 2 hr at 37°C); ypt7∆, sec24 mutant, WT or hrr25-5 cells
[1] = biological target: T1, Sec24 T325E/T328E (S. cerevisiae) (UniProt P40482)
T1 sequence: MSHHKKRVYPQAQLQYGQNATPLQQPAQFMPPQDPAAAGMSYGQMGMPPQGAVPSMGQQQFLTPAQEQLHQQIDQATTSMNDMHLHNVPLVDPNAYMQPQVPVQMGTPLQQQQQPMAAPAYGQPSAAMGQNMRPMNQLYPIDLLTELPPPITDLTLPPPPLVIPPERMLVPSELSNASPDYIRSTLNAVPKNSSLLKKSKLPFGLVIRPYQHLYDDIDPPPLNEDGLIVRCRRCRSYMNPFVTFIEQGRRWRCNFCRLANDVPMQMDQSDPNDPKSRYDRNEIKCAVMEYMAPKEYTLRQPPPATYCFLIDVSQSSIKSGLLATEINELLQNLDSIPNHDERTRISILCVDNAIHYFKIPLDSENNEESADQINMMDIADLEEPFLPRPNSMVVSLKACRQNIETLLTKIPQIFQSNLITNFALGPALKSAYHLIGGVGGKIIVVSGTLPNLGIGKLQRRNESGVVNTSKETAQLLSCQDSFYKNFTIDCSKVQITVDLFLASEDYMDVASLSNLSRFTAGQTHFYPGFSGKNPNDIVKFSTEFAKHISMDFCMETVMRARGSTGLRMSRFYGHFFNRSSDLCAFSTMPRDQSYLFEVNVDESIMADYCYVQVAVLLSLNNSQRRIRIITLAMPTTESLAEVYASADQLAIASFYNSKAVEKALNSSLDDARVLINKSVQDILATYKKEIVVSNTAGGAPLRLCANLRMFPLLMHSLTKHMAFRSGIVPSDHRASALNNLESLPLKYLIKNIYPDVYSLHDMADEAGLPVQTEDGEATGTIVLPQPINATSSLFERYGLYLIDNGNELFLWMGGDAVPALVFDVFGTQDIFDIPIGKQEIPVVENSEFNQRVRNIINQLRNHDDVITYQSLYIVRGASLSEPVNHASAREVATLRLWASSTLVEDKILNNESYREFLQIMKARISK

[2] = biological target: T2, Sec24-T324E/T325E (S. cerevisiae) (UniProt P40482)
T2 sequence: T1 sequence with T324E, E328T

[3] = biological target: T3, Sec24 (wild type, in yeast lysate) (S. cerevisiae) (UniProt P40482)
T3 sequence: T1 sequence with E325T, E328T

- binding [1]: binds
- binding [2]: binds
- binding [3]: binds
B1: Atg9-13myc (protein, UniProt Q12142 1-997)
chain: MERDEYQLPNSHGKNTFLSRIFGLQSDEVNPSLNSQEMSNFPLPDIERGSSLLHSTNDSREDVDENDLRVPESDQGTSTEEEDEVDEEQVQAYAPQISDGLDGDHQLNSVTSKENVLETEKSNLERLVEGSTDDSVPKVGQLSSEEEEDNEFINNDGFDDDTPLFQKSKIHEFSSKKSNTIEDGKRPLFFRHILQNNRPQRDTQKLFTSSNAIHHDKDKSANNGPRNINGNQKHGTKYFGSATQPRFTGSPLNNTNRFTKLFPLRKPNLLSNISVLNNTPEDRINTLSVKERALWKWANVENLDIFLQDVYNYYLGNGFYCIILEKILNICTLLFVVFVSTYMGHCVDYSKLPTSHRVSDIIIDKCYSNSITGFTKFFLWMFYFFVILKIVQLYFDVQKLSELQNFYKYLLNISDDELQTLPWQNVIQQLMYLKDQNAMTANVVEVKAKNRIDAHDVANRIMRRENYLIALYNSDILNLSLPIPLFRTNVLTKTLEWNINLCVMGFVFNESGFIKQSILKPSQREFTREELQKRFMLAGFLNIILAPFLVTYFVLLYFFRYFNEYKTSPGSIGARQYTPIAEWKFREYNELYHIFKKRISLSTTLANKYVDQFPKEKTNLFLKFVSFICGSFVAILAFLTVFDPENFLNFEITSDRSVIFYITILGAIWSVSRNTITQEYHVFDPEETLKELYEYTHYLPKEWEGRYHKEEIKLEFCKLYNLRIVILLRELTSLMITPFVLWFSLPSSAGRIVDFFRENSEYVDGLGYVCKYAMFNMKNIDGEDTHSMDEDSLTKKIAVNGSHTLNSKRRSKFTAEDHSDKDLANNKMLQSYVYFMDDYSNSENLTGKYQLPAKKGYPNNEGDSFLNNKYSWRKQFQPGQKPELFRIGKHALGPGHNISPAIYSTRNPGKNWDNNNNGDDIKNGTNNATAKNDDNNGNNDHEYVLTESFLDSGAFPNHDVIDHNKMLNSNYNGNGILNKGGVLGLVKEYYKKSDVGR
